SMILES strings stand for the structures. The list shows a part of the results. This data set is noisy: repeats of one test often differ as much as different tests do.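 Free-swimming zebrafish larvae were assessed for O-bend response probability to dark flashes (naive: first five; training: remaining flashes across four 60-flash blocks; test: later 60-flash block) and for OMR turning toward alternating leftward/rightward LED motion. Six treated larvae were compared against sixty 0.1% DMSO controls; hits required |SSMD|≥2.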

The experiment deals with Danio rerio larvae (5 dpf, TLF). Briefly: Prob-Train (SSMD vs DMSO vehicle); higher = higher than vehicle (e.g. higher dark-flash O-bend response probability, or better optomotor performance). The following applies: 10 µM; pre-incubation: 30-90 min.
Compound `NC(=S)NN=Cc1ncccc1N` [Triapine] registered a Prob-Train of 0.111.
The figure for `CCN1CCN(C(=O)N[C@@H](C(=O)N[C@H]2C(=O)N3[C@@H]2SC(C)(C)[C@H]3C(=O)[O-])c2ccccc2)C(=O)C1=O.[Na+]` [Piperacillin Sodium] is 0.169; for `Br.Br.NCCCCCNCC12CC3CC(CC(C3)C1)C2` [IEM 1754 dihydrobroMide] it is 0.204.
In the case of `Cc1cc(C(C)(C)C)c(O)c(C)c1CC1=NCCN1.Cl` [Oxymetazoline HCl] it was -0.0175; in that of `NC(CO)(CO)CO` [Trometamol], -0.143.
In the case of `CN1CCC[C@@H]1CCO[C@](C)(c1ccccc1)c1ccc(Cl)cc1.O=C(O)/C=C/C(=O)O` [Clemastine Fumarate] it was 0.0846; in that of `Cl.Clc1ccccc1CN1CCc2sccc2C1` [Ticlopidine HCl], -0.26; in that of `Cc1cn2cc(C(=O)N(C)CCO)cc(N[C@@H]3CCOc4cccc(C)c43)c2n1`, 0.351.
`CC(C)Oc1ccc2c(=O)c(-c3ccccc3)coc2c1` [Ipriflavone (Osteofix)] yielded a Prob-Train of -2.03.
As for `Cc1cc(Nc2ncnc3ccc(-c4ccc(CNCCS(C)(=O)=O)o4)cc23)ccc1Oc1ccn2ncnc2c1` [HER2-Inhibitor-1], the Prob-Train came to 0.229.
The figure for `NC(=O)N1c2ccccc2CC(=O)c2ccccc21` [Oxcarbazepine] is -0.264; for `CC1(C)S[C@@H]2[C@H](NC(=O)[C@H](N)c3ccc(O)cc3)C(=O)N2[C@@H]1C(=O)[O-].[Na+]` [Amoxicillin Sodium] it is 0.393.
Compound `Cc1oncc1C(=O)Nc1ccc(C(F)(F)F)cc1` [Leflunomide] displayed a Prob-Train of -0.395.
In the case of `CC(C)NCC(O)COc1ccc(COCCOC(C)C)cc1.O=C(O)/C=C/C(=O)O` (stereo not given) [Bisoprolol fumarate] it was -0.399; in that of `Cc1c(CN2CCN(C(=O)[C@H](C)O)CC2)sc2c(N3CCOCC3)nc(-c3cnc(N)nc3)nc12`, -0.072; in that of `CC1CCc2c(N3CCC(O)CC3)c(F)cc3c(=O)c(C(=O)O)cn1c23` (stereo not given) [Nadifloxacin], -0.0471.
The figure for `CC1CCN(CC[C@H]2CCCN2S(=O)(=O)c2cccc(O)c2)CC1.Cl` is -1.31; for `CC[C@]1(O)C[C@@H]2C[N@](CCc3c([nH]c4ccccc34)[C@@](C(=O)OC)(c3cc4c(cc3OC)N(C)[C@@H]3C45CCN4CC=C[C@](CC)([C@H]45)[C@H](OC(C)=O)[C@]3(O)C(=O)OC)C2)C1` (stereo not given in full) [Vinblastine] it is 0.00612; for `C#CCN(C)CCCOc1ccc(Cl)cc1Cl.Cl` [Clorgyline HCl] it is -1.46.
The figure for `CC(C)[C@H](CNC(=O)[C@@H](NC(=O)c1cccc(-c2ccccc2)n1)[C@@H](C)O)B(O)O` is -0.445; for `Cn1c(=O)cc(N2CCC[C@@H](N)C2)n(Cc2ccccc2C#N)c1=O` [Alogliptin] it is 0.978; for `N#CC[C@@H](C1CCCC1)n1cc(-c2ncnc3[nH]ccc23)cn1` it is 0.0781.
The compound `O=C(NC(NC(=S)Nc1ccc(F)c([N+](=O)[O-])c1)C(Cl)(Cl)Cl)C(c1ccccc1)c1ccccc1` (stereo not given) yielded a Prob-Train of 0.488.
The figure for `COc1cc([C@H]2Oc3cc([C@@H]4Oc5cc(O)cc(O)c5C(=O)[C@@H]4O)ccc3O[C@@H]2CO)ccc1O` [Silibinin] is -0.00823; for `Cc1ccnc(NS(=O)(=O)c2ccc(N)cc2)n1` [Sulfamerazine] it is 0.448; for `COc1ccc2c(Oc3ccc(NC(=O)c4c(C)n(CC(C)(C)O)n(-c5ccccc5)c4=O)nc3)ccnc2c1` it is -0.333.
In the case of `c1cn2cc(-c3ccc4cn[nH]c4c3)nc(Nc3ccc(N4CCOCC4)cc3)c2n1` it was -0.15; in that of `N.N.O=C([O-])C1(C(=O)[O-])CCC1.[Pt+2]` [Carboplatin], -0.2; in that of `Cc1cc2nc3c(=O)[nH]c(=O)nc-3n(C[C@H](O)[C@H](O)[C@H](O)CO)c2cc1C` [Riboflavin (Vitamin B2)], -0.728.
`O=C(Oc1ccccc1C(=O)O)c1ccccc1O` [Sasapyrine] showed a Prob-Train of -0.484.
In the case of `CCCc1cc2c(N3CCN(C4=NCC(C)(C)S4)CC3)ncnc2s1` [MI-2 (Menin-MLL Inhibitor)] it was -0.937.
In the case of `CC(NC(=O)c1ccccc1/N=C/c1c(O)ccc2ccccc12)c1ccccc1` (stereo not given) [Sirtinol] it was -0.537; in that of `COc1cc(C(=O)NC2CCCNC2)cc(OC)c1OC` (stereo not given) [Troxipide], 0.285.
In the case of `O=C(O)c1cc(/N=N/c2ccc(S(=O)(=O)Nc3ccccn3)cc2)ccc1O` [Sulfasalazine] it was 0.471; in that of `O=C(Oc1cc(S(=O)(=O)c2ccccc2)ccc1[N+](=O)[O-])c1ccc(Cl)cc1`, -1.2.
`CC(=O)CCCCn1c(=O)c2c(ncn2C)n(C)c1=O` [Pentoxifylline] had a Prob-Train of 0.348.
The figure for `Nc1nc(=O)[nH]cc1F` [Flucytosine] is -0.594.
The figure for `CCNC(=O)C1=C(c2ccc(OC)cc2)C(=C2C=C(Cl)C(O)=CC2=O)NN1` is 0.198; for `CC(C)C[C@@H](C(=O)N[C@H](C(=O)OC1CCCC1)c1ccccc1)[C@H](O)C(=O)NO` [Tosedostat (CHR2797)] it is -0.479.
The figure for `N=C(N)NS(=O)(=O)c1ccc(N)cc1` [Sulfaguanidine] is 0.356.

These data come from the supplement of paper PMC10727501.
